Measured values as given in the supplement of paper PMC12819154, “High-throughput peptide-centric local stability assay extends protein–ligand identification to membrane proteins, tissues and bacteria” (Nature Structural & Molecular Biology, 2025).
The list shows a part of the results. Most entries show no effect beyond the scatter of the controls.

Chains of the proteins cited; added tags and fusions are not shown. Lines headed by an entry give the natural chain unless they say otherwise; changes in a name come on top.
UniProt Q8R1V4: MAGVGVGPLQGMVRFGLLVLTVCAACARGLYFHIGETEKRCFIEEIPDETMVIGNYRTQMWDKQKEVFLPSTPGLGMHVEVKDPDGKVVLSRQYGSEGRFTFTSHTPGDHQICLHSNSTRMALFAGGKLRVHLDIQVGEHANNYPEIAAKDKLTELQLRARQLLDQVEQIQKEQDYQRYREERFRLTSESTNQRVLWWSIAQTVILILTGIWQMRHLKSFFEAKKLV
UniProt Q8K0B2: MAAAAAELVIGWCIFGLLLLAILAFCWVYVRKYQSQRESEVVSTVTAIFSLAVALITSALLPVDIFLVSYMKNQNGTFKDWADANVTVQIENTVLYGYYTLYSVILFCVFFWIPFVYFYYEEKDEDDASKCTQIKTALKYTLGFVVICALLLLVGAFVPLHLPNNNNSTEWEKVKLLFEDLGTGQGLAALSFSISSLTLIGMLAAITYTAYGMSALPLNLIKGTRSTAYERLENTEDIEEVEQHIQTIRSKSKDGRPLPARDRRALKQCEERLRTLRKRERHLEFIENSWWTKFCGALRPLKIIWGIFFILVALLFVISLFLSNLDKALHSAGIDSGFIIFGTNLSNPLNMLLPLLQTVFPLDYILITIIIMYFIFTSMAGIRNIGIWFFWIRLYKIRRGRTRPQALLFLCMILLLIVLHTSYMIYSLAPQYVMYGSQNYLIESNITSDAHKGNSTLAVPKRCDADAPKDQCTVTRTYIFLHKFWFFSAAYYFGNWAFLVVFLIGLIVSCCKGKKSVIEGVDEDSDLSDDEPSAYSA
UniProt Q8CIF4: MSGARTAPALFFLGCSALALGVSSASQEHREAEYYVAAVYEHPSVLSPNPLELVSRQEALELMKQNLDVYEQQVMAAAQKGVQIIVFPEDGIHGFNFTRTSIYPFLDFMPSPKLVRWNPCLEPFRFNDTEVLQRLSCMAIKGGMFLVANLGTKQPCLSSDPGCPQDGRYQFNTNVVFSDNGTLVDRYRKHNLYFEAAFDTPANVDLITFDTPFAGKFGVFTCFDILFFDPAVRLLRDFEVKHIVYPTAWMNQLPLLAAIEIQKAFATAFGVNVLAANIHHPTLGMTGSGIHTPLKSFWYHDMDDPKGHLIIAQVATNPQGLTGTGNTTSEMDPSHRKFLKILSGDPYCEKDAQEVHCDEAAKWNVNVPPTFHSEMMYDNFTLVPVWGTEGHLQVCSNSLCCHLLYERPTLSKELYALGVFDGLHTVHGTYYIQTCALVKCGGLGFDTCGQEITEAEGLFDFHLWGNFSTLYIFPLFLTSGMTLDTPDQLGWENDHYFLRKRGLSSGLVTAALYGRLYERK
UniProt Q8JZS0: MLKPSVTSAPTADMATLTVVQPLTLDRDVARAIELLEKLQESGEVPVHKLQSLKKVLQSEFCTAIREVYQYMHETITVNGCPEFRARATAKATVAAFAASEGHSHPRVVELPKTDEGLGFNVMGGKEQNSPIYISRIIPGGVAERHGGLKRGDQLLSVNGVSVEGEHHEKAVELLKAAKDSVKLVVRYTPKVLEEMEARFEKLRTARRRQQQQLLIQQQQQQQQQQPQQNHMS
UniProt Q8K0V4, whole entry: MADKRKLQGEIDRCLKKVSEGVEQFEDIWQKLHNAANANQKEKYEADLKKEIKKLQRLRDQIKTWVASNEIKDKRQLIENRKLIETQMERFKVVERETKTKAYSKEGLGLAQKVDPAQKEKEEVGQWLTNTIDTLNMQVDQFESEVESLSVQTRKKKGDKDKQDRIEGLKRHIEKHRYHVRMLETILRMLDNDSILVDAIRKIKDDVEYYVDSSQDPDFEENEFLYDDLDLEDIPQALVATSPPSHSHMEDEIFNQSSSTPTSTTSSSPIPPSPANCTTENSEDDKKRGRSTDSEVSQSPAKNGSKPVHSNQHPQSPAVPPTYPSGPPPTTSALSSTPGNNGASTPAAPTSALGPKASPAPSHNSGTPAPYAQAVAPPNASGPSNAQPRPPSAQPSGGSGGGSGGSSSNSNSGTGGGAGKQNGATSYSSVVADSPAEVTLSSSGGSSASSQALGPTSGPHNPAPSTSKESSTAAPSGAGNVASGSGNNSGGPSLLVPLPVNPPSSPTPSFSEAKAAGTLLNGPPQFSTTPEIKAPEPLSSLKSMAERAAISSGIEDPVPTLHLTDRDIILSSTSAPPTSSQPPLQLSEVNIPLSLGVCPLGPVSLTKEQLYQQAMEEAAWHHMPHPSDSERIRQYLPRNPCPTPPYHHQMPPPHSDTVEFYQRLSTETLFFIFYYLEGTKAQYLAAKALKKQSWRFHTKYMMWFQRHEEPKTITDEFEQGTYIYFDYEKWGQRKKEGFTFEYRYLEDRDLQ
UniProt Q8R3P0: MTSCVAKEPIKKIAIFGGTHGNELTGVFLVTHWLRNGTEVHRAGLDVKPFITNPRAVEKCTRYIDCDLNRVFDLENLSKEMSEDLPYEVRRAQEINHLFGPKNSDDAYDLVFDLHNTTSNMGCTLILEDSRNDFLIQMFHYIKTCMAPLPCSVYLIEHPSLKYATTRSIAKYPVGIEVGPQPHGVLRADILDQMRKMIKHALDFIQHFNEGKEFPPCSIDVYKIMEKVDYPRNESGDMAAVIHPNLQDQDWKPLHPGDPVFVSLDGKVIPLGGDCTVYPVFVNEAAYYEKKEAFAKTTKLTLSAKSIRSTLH
UniProt Q8R0A0, whole entry: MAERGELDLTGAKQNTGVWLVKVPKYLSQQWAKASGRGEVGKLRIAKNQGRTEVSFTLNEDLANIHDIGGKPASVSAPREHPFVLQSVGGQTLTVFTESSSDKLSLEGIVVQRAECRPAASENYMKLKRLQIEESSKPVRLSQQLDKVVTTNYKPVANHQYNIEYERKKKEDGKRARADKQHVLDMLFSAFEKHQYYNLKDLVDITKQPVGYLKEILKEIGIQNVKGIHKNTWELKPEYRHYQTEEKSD
UniProt Q8K1Z0: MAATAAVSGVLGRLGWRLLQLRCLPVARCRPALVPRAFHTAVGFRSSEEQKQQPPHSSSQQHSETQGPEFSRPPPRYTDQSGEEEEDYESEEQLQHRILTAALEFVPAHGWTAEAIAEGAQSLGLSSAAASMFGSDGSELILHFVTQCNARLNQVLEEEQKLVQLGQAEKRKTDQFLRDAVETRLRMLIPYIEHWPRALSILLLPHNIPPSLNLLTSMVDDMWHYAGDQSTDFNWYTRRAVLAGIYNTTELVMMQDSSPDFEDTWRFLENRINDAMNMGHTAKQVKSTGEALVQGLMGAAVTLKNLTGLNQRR
UniProt Q8K124: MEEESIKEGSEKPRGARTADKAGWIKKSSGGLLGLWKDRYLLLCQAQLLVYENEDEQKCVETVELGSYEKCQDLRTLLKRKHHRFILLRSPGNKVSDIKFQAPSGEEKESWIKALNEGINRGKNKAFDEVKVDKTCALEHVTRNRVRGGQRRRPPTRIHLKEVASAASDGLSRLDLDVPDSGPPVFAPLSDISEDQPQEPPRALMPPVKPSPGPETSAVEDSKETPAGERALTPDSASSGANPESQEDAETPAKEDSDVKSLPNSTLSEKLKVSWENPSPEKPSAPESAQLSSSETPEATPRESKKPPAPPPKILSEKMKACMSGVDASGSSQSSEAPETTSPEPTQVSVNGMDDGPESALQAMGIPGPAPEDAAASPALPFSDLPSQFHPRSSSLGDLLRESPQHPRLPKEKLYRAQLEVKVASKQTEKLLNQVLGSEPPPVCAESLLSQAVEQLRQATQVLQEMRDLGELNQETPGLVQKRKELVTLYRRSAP
UniProt Q8R1I1: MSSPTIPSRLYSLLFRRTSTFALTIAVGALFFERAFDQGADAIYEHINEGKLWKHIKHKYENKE
UniProt Q8K1B8, whole entry: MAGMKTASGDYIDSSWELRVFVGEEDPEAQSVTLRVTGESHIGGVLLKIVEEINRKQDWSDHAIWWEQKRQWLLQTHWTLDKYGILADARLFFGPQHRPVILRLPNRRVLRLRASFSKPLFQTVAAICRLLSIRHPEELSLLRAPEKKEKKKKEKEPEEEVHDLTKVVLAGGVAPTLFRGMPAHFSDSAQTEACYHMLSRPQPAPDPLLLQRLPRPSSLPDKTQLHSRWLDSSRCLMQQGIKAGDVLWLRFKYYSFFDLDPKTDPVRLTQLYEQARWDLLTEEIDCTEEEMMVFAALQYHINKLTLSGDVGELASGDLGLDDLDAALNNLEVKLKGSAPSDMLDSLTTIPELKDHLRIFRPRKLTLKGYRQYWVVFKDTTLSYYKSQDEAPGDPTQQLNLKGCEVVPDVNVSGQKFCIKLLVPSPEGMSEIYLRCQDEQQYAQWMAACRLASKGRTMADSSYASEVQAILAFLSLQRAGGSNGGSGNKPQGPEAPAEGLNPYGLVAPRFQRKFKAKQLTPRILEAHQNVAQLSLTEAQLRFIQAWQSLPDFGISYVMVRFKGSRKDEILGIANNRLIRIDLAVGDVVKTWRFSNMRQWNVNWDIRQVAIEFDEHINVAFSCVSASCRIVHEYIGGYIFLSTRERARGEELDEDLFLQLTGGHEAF
UniProt Q8K2V1: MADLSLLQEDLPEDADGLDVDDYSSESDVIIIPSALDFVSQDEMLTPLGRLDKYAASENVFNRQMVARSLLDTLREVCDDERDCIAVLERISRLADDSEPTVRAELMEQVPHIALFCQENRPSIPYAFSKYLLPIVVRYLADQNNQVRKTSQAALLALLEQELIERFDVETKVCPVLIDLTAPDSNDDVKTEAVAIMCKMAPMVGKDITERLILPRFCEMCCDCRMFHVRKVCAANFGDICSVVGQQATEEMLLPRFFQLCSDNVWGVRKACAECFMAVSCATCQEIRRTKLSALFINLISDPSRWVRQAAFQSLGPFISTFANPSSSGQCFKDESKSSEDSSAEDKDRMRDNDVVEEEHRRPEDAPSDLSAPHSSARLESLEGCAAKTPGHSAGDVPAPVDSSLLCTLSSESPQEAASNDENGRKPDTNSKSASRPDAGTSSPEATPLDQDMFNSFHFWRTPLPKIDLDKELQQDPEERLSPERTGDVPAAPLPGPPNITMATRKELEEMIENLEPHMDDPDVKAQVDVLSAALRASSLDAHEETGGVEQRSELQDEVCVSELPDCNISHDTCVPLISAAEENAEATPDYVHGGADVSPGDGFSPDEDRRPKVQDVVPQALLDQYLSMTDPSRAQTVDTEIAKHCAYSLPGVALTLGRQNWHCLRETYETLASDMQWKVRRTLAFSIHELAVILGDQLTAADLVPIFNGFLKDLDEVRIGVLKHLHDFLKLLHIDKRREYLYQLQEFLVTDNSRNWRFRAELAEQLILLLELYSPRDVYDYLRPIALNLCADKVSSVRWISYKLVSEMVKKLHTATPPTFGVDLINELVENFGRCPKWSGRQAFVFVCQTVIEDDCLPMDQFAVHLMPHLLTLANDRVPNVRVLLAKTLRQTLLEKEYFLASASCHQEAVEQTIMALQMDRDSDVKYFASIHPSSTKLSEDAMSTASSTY
UniProt Q8R0P4: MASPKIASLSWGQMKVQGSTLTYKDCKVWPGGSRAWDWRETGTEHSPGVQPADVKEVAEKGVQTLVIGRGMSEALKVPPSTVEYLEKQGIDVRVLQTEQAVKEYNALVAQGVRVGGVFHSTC
UniProt Q8K411: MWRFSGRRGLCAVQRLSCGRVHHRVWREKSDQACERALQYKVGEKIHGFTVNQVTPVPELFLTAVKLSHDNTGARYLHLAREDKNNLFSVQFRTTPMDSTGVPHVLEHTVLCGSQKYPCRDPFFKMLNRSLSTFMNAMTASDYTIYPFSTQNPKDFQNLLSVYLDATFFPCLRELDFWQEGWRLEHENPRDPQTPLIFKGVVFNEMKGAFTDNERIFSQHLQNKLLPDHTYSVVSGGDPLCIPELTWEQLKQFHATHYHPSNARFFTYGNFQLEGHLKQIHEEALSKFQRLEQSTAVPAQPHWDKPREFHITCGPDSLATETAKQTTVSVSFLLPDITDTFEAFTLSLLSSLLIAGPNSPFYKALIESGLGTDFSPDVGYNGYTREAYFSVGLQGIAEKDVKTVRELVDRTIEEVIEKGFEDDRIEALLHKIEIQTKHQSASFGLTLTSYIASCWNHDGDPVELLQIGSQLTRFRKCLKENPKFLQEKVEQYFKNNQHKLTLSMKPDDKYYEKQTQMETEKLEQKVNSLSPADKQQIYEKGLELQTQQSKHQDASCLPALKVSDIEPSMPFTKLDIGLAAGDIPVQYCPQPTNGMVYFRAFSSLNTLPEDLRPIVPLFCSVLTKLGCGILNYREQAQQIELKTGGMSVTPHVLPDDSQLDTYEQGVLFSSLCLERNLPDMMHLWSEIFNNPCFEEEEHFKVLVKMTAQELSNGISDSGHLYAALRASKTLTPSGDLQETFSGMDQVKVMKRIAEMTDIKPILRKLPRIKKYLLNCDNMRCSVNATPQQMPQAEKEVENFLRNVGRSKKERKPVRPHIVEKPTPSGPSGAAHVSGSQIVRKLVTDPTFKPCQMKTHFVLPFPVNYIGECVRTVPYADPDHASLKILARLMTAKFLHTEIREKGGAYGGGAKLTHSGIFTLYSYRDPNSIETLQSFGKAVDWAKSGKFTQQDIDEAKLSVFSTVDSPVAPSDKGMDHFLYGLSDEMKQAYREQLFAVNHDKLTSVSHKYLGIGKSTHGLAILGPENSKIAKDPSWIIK

Each target was assayed with CN[C@@H]1C[C@H]2O[C@@](C)([C@@H]1OC)n1c3ccccc3c3c4c(c5c6ccccc6n2c5c31)C(=O)NC4 [staurosporine] (assay: log2 fold change of pooled soluble protein (PISA), ligand vs vehicle (log2 ratio); higher = more thermally stabilized). Details: ligand concentration: 20 uM; assay format: PISA pool 52.9/55.5/58.6 C.
UniProt Q8R1V4 was tested, and the “log2 fold change of pooled soluble protein” value (“log2 fold change” below) was -0.0486. With UniProt Q8K2F0 the “log2 fold change” value was -0.0186. For UniProt Q8R344, the “log2 fold change” value was -0.0352. In the case of UniProt Q8K1E6, the “log2 fold change” value is reported as 0.101. With UniProt Q8K0B2 the “log2 fold change” value was -0.089. With UniProt Q8CGF1 the “log2 fold change” value was 0.147. With UniProt Q8K4Z5 the “log2 fold change” value was 0.399. In the case of UniProt Q8CJ61, the “log2 fold change” value is reported as 0.0865. With UniProt Q8CIF4 the “log2 fold change” value was 0.00298. UniProt Q8JZS0 was tested, and the “log2 fold change” value was -0.0116. With UniProt Q8R4H2 the “log2 fold change” value was -0.0304. For UniProt Q8JZR0, the “log2 fold change” value was -0.146. With UniProt Q8K0V4 the “log2 fold change” value was 0.124. With UniProt Q8R3P0 the “log2 fold change” value was 0.143. For UniProt Q8CIE6, the “log2 fold change” value was -0.00198. UniProt Q8R0A0 was tested, and the “log2 fold change” value was -0.125. With UniProt Q8K1Z0 the “log2 fold change” value was 0.00556. For UniProt Q8CIN4, the “log2 fold change” value was 0.167. In the case of UniProt Q8R5J9, the “log2 fold change” value is reported as -0.134. UniProt Q8K1R3 was tested, and the “log2 fold change” value was -0.0289. UniProt Q8K4Z3 was tested, and the “log2 fold change” value was -0.0156. UniProt Q8R3E3 was tested, and the “log2 fold change” value was 0.215. UniProt Q8CIE0 was tested, and the “log2 fold change” value was -0.0255. With UniProt Q8K124 the “log2 fold change” value was -0.331. With UniProt Q8VC03 the “log2 fold change” value was 0.0513. In the case of UniProt Q8R0F3, the “log2 fold change” value is reported as 0.221. UniProt Q8JZY2 was tested, and the “log2 fold change” value was -0.123. UniProt Q8VC48 was tested, and the “log2 fold change” value was -0.0948. UniProt Q8CHY6 was tested, and the “log2 fold change” value was -0.106. For UniProt Q8R1I1, the “log2 fold change” value was -0.00551. With UniProt Q8R0N6 the “log2 fold change” value was -0.0654. With UniProt Q8JZL3 the “log2 fold change” value was -0.136. In the case of UniProt Q8K1R7, the “log2 fold change” value is reported as 0.288. With UniProt Q8K1B8 the “log2 fold change” value was -0.239. In the case of UniProt Q8K2V1, the “log2 fold change” value is reported as 0.1. With UniProt Q8R0P4 the “log2 fold change” value was 0.0687. With UniProt Q8K411 the “log2 fold change” value was -0.011.
